Results reported in publication PMC11466185, “Mechanisms and efficacy of small molecule latency-promoting agents to inhibit HIV reactivation ex vivo” (JCI Insight, 2024).

Test system: HIV transcripts (PolyA, TatRev)
Experiment: Dose-response curves of LPAs: polyadenylated and multiply spliced HIV transcripts 24 hours after activation
Assay type: cell-based
Settings: Human immunodeficiency virus 1, PBMC, reduction in PolyA HIV transcripts relative to activated DMSO, PBMCs from 1 participant per drug, read-out: Completed (PolyA) IC50
Description: The IC50 was determined based on the reduction in completed (PolyA) as well as multiply spliced (TatRev) HIV transcripts relative to activated DMSO (Table 1).
Figure 2 Dose-response curves of LPAs. Dose-response curves for each drug were generated in PBMCs from 1 ART-suppressed study participant per drug. PBMCs were aliquoted into wells at 6 × 10^6 cells/well, activated, and cultured with antiretrovirals in the presence of DMSO alone (no drug) or varying concentrations of individual drugs in DMSO. After 24 hours, the levels of polyadenylated and multiply spliced HIV transcripts were quantified by RT-ddPCR, normalized to 1 μg of total cellular RNA, and expressed as a percentage of the activated DMSO control (% of activated DMSO).

## CCc1cnn2c(NCc3ccc[n+]([O-])c3)cc(N3CCCC[C@H]3CCO)nc12 [dinaciclib]
  IC50: 0.55 nM
